Experimental data: patent US20140178456A1, “METHODS AND COMPOSITIONS FOR TREATING TYPE 2 DIABETES AND RELATED CONDITIONS” (priority 2012, published 2014)
For at least one compound, name, drawing or mass did not settle the structure.

System: patient suffering from type 2 diabetes
Experiment: Therapeutic effect of subcutaneous sustained release formulation in a type 2 diabetes patient
Format: in vivo, human
Settings: 70 kg patient, subcutaneous into abdominal area, sustained release over a 6-month period

Row | Structure (SMILES) | glycemic control | subcutaneous adipose tissue mass
1 | CN(CCOc1ccc(CC2SC(=O)NC2=O)cc1)c1ccccn1 (stereo not shown) [rosiglitazone] | euglycemia or improved euglycemic control | increase in subcutaneous adipose tissue mass
2 | CCc1ccc(CCOc2ccc(CC3SC(=O)NC3=O)cc2)nc1 (stereo not shown) [pioglitazone] | euglycemia or improved euglycemic control | increase in subcutaneous adipose tissue mass
